Data as given in PMC9302817, “VEGF receptor heterodimers and homodimers are differentially expressed in neuronal and endothelial cell types” (PLoS ONE, 2022).
No constants are given. Whether binding was seen depends on the method and setting. In cells and extracts the contact can be indirect. Some entries that bind do so weakly or less than the wild type.

Biological target: T1, VEGFR1 (mouse, endogenous in MAEC, MVEC, trigeminal ganglion neurons and mouse tissues) (mouse (endogenous in MAEC, MVEC, trigeminal ganglion neurons and mouse tissues)) (UniProt P35969)
T1 sequence: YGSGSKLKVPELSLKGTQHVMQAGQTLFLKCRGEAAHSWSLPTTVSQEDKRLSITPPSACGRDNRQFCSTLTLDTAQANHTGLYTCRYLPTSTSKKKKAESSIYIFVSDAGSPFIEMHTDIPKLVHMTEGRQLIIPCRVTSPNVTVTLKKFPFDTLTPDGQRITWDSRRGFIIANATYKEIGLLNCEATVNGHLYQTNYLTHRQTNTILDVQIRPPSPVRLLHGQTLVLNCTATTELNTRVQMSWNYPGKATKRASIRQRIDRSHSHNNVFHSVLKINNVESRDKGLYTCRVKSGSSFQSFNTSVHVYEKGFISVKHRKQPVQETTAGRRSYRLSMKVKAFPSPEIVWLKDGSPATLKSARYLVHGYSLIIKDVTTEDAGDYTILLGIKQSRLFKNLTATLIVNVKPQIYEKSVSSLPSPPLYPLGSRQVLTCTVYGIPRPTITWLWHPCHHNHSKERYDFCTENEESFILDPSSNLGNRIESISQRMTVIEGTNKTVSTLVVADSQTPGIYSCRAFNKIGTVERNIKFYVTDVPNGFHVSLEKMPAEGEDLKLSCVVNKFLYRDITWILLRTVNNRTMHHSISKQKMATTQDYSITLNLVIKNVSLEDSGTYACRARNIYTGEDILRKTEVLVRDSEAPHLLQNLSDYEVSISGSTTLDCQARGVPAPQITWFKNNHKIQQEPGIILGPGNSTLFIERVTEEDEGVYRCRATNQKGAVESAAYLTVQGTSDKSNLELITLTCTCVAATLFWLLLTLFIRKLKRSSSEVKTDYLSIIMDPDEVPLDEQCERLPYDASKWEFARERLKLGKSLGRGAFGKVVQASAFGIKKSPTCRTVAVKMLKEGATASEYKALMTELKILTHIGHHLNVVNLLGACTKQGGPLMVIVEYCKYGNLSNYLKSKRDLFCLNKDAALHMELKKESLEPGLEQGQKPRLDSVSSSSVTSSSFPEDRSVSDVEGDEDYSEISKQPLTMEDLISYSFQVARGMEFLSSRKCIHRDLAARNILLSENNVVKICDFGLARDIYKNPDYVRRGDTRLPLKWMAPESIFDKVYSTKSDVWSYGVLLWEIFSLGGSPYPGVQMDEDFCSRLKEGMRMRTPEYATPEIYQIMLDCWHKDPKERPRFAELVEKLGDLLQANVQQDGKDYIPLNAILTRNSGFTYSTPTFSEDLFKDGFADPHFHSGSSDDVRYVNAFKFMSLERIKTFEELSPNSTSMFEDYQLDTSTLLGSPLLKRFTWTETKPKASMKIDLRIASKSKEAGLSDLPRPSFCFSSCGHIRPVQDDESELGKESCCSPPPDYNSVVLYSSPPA
Assay: proximity ligation; Duolink PLA on fixed MAEC; anti-VEGFR1 and anti-VEGFR2 with PLUS and MINUS probes (the same antibody with both probes for homodimers); signal only within 40 nm

- binding: binds weakly
B1: VEGFR1 (mouse, endogenous in MAEC, MVEC, trigeminal ganglion neurons and mouse tissues) (receptor, UniProt P35969 23-1333, looked up)
chain: YGSGSKLKVPELSLKGTQHVMQAGQTLFLKCRGEAAHSWSLPTTVSQEDKRLSITPPSACGRDNRQFCSTLTLDTAQANHTGLYTCRYLPTSTSKKKKAESSIYIFVSDAGSPFIEMHTDIPKLVHMTEGRQLIIPCRVTSPNVTVTLKKFPFDTLTPDGQRITWDSRRGFIIANATYKEIGLLNCEATVNGHLYQTNYLTHRQTNTILDVQIRPPSPVRLLHGQTLVLNCTATTELNTRVQMSWNYPGKATKRASIRQRIDRSHSHNNVFHSVLKINNVESRDKGLYTCRVKSGSSFQSFNTSVHVYEKGFISVKHRKQPVQETTAGRRSYRLSMKVKAFPSPEIVWLKDGSPATLKSARYLVHGYSLIIKDVTTEDAGDYTILLGIKQSRLFKNLTATLIVNVKPQIYEKSVSSLPSPPLYPLGSRQVLTCTVYGIPRPTITWLWHPCHHNHSKERYDFCTENEESFILDPSSNLGNRIESISQRMTVIEGTNKTVSTLVVADSQTPGIYSCRAFNKIGTVERNIKFYVTDVPNGFHVSLEKMPAEGEDLKLSCVVNKFLYRDITWILLRTVNNRTMHHSISKQKMATTQDYSITLNLVIKNVSLEDSGTYACRARNIYTGEDILRKTEVLVRDSEAPHLLQNLSDYEVSISGSTTLDCQARGVPAPQITWFKNNHKIQQEPGIILGPGNSTLFIERVTEEDEGVYRCRATNQKGAVESAAYLTVQGTSDKSNLELITLTCTCVAATLFWLLLTLFIRKLKRSSSEVKTDYLSIIMDPDEVPLDEQCERLPYDASKWEFARERLKLGKSLGRGAFGKVVQASAFGIKKSPTCRTVAVKMLKEGATASEYKALMTELKILTHIGHHLNVVNLLGACTKQGGPLMVIVEYCKYGNLSNYLKSKRDLFCLNKDAALHMELKKESLEPGLEQGQKPRLDSVSSSSVTSSSFPEDRSVSDVEGDEDYSEISKQPLTMEDLISYSFQVARGMEFLSSRKCIHRDLAARNILLSENNVVKICDFGLARDIYKNPDYVRRGDTRLPLKWMAPESIFDKVYSTKSDVWSYGVLLWEIFSLGGSPYPGVQMDEDFCSRLKEGMRMRTPEYATPEIYQIMLDCWHKDPKERPRFAELVEKLGDLLQANVQQDGKDYIPLNAILTRNSGFTYSTPTFSEDLFKDGFADPHFHSGSSDDVRYVNAFKFMSLERIKTFEELSPNSTSMFEDYQLDTSTLLGSPLLKRFTWTETKPKASMKIDLRIASKSKEAGLSDLPRPSFCFSSCGHIRPVQDDESELGKESCCSPPPDYNSVVLYSSPPA
notes: VEGF receptor 1 (VEGFR-1, flt-1), endogenous in mouse aortic and venous endothelial cell lines, thy1-YFP mouse trigeminal ganglion neurons and mouse tissues; Endogenous protein; also called flt-1; Flt-1; source: endogenous, MAEC and MVEC lysates; endogenous, mouse tissue lysates (thoracic aorta, portal vein, dorsal root ganglia, trigeminal ganglia, cornea); endogenous, fixed MAEC, MVEC and …
